Results are given in words; binding and its absence hold for the method and conditions named. Binding seen in cells or lysates may run through a third protein. Some results given as binding are weak or reduced against the parent protein; the word gives no strength. For part of these data: Tags and fused reporters may be left off the sequences shown. Values belong to the molecule of their own block, whether it stands above or below them.
Columns and labels:
[1] = biological target: GST-RhoJ-G33A (nucleotide-free RhoJ) (UniProt Q9H4E5); assay: pull-down; GST fusion and partners co-transfected in HEK293T cells, serum-starved overnight; lysates (TBS-Triton: 50 mM Tris pH 7.5, 150 mM NaCl, 1% Triton X-100, 5 mM EDTA) on glutathione-sepharose 1 h at 4 °C, 3 washes, Western blot; in some panels cells treated with the Gq inhibitor YM254890 (1 µM, 2 h) or co-transfected with active Gα subunits
GST-PRG-PH = biological target: T1, GST-PRG-PH (UniProt O15085); assay: as above
T1 sequence: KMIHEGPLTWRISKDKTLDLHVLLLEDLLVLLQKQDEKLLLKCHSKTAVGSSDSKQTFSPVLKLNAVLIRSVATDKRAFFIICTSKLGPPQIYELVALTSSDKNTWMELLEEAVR

The chains behind the UniProt entries cited, without tags or fusion partners. Where a name states a change or a piece, a line headed by the entry shows the natural chain unless it says otherwise.
UniProt Q9H4E5: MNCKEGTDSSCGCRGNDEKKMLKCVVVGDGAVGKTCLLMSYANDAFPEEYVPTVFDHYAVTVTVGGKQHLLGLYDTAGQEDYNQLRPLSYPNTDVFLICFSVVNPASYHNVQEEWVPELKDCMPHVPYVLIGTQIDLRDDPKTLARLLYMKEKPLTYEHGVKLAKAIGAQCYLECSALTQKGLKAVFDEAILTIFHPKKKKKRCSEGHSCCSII
UniProt P50148: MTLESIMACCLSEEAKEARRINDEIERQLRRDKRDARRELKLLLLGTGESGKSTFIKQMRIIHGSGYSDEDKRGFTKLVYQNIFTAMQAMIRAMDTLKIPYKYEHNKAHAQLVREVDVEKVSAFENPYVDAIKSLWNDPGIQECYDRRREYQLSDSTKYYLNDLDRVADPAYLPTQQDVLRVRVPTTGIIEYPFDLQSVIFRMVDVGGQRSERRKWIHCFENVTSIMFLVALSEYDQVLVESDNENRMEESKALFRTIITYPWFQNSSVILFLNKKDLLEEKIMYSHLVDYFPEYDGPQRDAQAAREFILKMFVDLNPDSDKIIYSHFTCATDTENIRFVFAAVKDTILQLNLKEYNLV

[2] = biological target: HA-Gαq-Q209L (constitutively active, oncogenic Gαq) (UniProt P50148); assay: pull-down; competition: GST pull-down from lysates of transfected HEK-293T cells (bait GST-PRG-DH-PH, or GST-RhoJ-G33A with PRG-DH-PH) with or without co-transfected EGFP-PRG-PH as competitor; Western blot

binding [1]: binds
Molecule: full-length PDZ-RhoGEF (AU1-PRG) (from UniProt O15085 1-1522)

binding (GST-PRG-PH): binds
Molecule: HA-Gαq-Q209L (constitutively active, oncogenic Gαq) (from UniProt P50148 1-359)

binding [2]: binds
B1: EGFP-tagged PDZ-RhoGEF-PH (EGFP-PRG-PH) (domain or fragment, UniProt O15085 965-1079)
chain: KMIHEGPLTWRISKDKTLDLHVLLLEDLLVLLQKQDEKLLLKCHSKTAVGSSDSKQTFSPVLKLNAVLIRSVATDKRAFFIICTSKLGPPQIYELVALTSSDKNTWMELLEEAVR

Reference: publication PMC10647656
